Patent US20190040132A1 (FRED HUTCHINSON CANCER RESEARCH CENTER, published 2019)
These are yes or no findings as the source states them, for the method shown. Some entries that bind do so weakly or less than the wild type.

Sequences of proteins named here, by UniProt entry; tags and fusion partners are left off. A change or cut given only in a name is not applied to a line headed by its entry.
UniProt Q01973: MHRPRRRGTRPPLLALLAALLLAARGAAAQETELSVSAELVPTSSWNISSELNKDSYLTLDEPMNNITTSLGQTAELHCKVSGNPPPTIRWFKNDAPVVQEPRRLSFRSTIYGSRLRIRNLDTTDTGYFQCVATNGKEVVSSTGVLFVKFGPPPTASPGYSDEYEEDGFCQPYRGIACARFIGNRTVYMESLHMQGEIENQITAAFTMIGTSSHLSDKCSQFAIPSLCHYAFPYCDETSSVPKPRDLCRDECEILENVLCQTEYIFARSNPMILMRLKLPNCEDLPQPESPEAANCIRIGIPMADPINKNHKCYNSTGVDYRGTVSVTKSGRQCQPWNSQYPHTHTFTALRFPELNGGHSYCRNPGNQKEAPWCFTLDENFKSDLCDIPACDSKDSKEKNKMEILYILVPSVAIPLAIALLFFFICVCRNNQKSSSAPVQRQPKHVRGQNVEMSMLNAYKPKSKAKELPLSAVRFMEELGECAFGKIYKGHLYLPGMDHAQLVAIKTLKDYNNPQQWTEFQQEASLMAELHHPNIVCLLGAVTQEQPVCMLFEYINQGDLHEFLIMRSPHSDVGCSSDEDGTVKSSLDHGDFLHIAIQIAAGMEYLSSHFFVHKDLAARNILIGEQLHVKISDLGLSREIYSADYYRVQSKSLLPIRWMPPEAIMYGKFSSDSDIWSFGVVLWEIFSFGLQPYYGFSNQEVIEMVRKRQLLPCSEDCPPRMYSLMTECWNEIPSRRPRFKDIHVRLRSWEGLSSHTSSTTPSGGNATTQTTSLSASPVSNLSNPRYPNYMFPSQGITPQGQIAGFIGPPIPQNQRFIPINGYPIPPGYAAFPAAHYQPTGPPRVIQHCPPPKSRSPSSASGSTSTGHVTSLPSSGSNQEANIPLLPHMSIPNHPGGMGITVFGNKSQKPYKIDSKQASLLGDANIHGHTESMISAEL

Experiments:
[1] = biological target: human full-length ROR1 (ROR1_v1) (human) (UniProt Q01973); test: IHC on FFPE tumor tissue
[2] = biological target: human full-length ROR1 (ROR1_v1) (human) (UniProt Q01973); test: IHC on FFPE tumor samples
[3] = biological target: human full-length ROR1 (ROR1_v1) (human) (UniProt Q01973); test: IHC on FFPE K562/ROR1 cells
[4] = biological target: human full-length ROR1 (ROR1_v1) (human) (UniProt Q01973); test: IHC on FFPE lung cancer sub-types
[5] = biological target: human full-length ROR1 (ROR1_v1) (human) (UniProt Q01973); test: IHC on FFPE CLL and MCL lymph nodes
[6] = biological target: human full-length ROR1 (ROR1_v1) (human) (UniProt Q01973); test: immunoblot (WES) of CLL cell lysate
[7] = biological target: human full-length ROR1 (ROR1_v1) (human) (UniProt Q01973); test: IHC on ovarian cancer tissue microarrays
[8] = biological target: human full-length ROR1 (ROR1_v1) (human) (UniProt Q01973); test: summary of immunoblot and IHC in Example 3
[9] = biological target: human full-length ROR1 (ROR1_v1) (human) (UniProt Q01973); test: summary of IHC and immunoblot in Example 4
[10] = biological target: human full-length ROR1 (ROR1_v1) (human) (UniProt Q01973); test: immunoblot of CLL and normal tissue lysates
[11] = biological target: T1, human ROR1 peptide 786-…-814 (human); test: cytometric bead array carrying ROR1 peptides
T1 sequence (peptide): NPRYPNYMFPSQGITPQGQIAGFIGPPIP

[12] = biological target: human full-length ROR1 (ROR1_v1) (human) (UniProt Q01973); test: immunoblot of CLL cell lysate with hybridoma supernatant
[13] = biological target: rhesus ROR1_v1 (rhesus macaque); test: IHC on K562 and rhesus T cells transduced with rhesus ROR1
[14] = biological target: rhesus ROR1_v1 (rhesus macaque); test: IHC on K562 cells and rhesus T cells expressing rhesus ROR1
[15] = biological target: human full-length ROR1 (ROR1_v1) (human) (UniProt Q01973); test: IHC on FFPE K562/ROR1 cells; also on CLL and MCL lymph nodes
[16] = biological target: human full-length ROR1 (ROR1_v1) (human) (UniProt Q01973); test: IHC on FFPE cell lines; also immunoblot showing a 130 kDa band in K562/ROR1, CLL, MCL and tumor line lysates

Measured: binding

B1: anti-ROR1 monoclonal antibody 6D4 (antibody, V domains shown)
VH: SGPELVKPGTSVKMSCKASGYTFTDYYMNWVKQTHGKNLEWIGRVNPSNGNTDYNQKFKGKATLTVDKSLSTAYMQLSSLTSEDSAVYYCGRLAYWGQGSLVTVSA
VL: LTQSPASLAVSPGQRATISCKASQSVDYDGETYMNWYQQKSGQPPKLLIYAASNLESGIPARFSGSGSGTDFTLNIHPVEEEDAATYYCLQTLKNPYTFGGGTKLEIK
notes: Mouse monoclonal antibody from a hybridoma, used as supernatant or purified; also called mAb 6D4; clone 6D4
binds: all assays above
